PubChem BioAssay AID651768 (National Center for Advancing Translational Sciences (NCATS), 2012)
Screen size: about 360,000 compounds; about 1,700 (0.47%) were called active. The inconclusive results got no clear call from the source; some entries with a clear call stand among them for comparison. Calls come from the whole dose curve; as a rule, active = well fitted inhibition curve with a large enough effect; inconclusive = small, poorly fitted or top-dose-only effect; inactive = no such curve, though single readings can be large or run the other way. Potencies beside an inconclusive call are fits to weak or partial responses and may not hold up.
Note: nearly all actives have a fitted effect of over 55% in size.
Potency is the fitted concentration of half-maximal effect.

Protein sequences, listed by entry. Tags and fused reporters are not part of them.
UniProt Q14191, whole entry, looked up: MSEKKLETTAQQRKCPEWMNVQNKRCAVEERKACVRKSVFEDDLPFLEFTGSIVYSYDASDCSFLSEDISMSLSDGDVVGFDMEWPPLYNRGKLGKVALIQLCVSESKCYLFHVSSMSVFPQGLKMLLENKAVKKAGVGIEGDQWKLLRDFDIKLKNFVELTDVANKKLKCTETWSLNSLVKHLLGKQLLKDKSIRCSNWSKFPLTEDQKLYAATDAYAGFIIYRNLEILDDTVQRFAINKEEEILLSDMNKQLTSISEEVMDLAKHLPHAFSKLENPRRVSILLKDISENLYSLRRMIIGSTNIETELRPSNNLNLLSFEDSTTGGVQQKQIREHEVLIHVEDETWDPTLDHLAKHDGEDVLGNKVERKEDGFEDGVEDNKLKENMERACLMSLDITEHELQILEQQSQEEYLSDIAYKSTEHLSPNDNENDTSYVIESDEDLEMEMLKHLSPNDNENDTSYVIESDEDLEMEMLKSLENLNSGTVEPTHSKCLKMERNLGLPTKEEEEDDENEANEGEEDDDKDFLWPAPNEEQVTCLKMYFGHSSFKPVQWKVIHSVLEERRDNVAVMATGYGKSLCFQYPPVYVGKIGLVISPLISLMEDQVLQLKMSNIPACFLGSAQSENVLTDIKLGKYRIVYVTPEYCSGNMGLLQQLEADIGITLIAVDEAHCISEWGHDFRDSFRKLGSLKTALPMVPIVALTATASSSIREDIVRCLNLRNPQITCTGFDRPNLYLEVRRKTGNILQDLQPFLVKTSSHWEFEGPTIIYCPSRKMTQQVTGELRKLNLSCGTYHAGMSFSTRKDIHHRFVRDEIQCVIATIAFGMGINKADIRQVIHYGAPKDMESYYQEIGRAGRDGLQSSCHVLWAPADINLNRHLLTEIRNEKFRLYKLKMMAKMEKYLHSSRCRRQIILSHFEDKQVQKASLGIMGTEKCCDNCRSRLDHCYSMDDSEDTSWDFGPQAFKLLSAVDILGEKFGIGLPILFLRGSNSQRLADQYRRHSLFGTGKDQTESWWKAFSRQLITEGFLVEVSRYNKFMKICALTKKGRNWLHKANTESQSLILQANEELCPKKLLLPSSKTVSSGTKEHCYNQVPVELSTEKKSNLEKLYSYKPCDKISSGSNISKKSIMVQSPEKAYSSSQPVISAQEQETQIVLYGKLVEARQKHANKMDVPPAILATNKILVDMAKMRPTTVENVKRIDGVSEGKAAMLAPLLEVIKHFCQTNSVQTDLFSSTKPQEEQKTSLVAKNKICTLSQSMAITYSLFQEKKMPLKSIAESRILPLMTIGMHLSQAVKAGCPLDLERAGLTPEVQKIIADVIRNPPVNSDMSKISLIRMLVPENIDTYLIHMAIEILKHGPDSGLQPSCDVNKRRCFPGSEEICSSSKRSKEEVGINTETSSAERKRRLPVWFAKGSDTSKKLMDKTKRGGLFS

Each compound was assayed against Bifunctional 3'-5' exonuclease/ATP-dependent helicase WRN (Homo sapiens) (UniProt Q14191) (assay: qHTS for Inhibitors of WRN Helicase). Details: WRN helicase unwinding, fluorescent forked duplex, kinetic; series mostly up to 114 µM.
Method in brief: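 Kinetic red-fluorescence monitoring (525/598 nm) tracks WRN helicase activity after 100 nM fluorophore-quencher forked duplex and 2 mM ATP are added to 20 nM enzyme pretreated 15 min at room temperature with compound.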
For `Cc1cc(C(F)F)nn1CC(=O)NCc1ccco1`, the Potency was inconclusive: 28.2 µM [inhibitor, single point].
In the case of `CCN(CC)S(=O)(=O)c1ccc(OCCNS(C)(=O)=O)cc1`, the Potency is reported as inconclusive: 89.1 µM [inhibitor, single point].
In the case of `COc1ccc2[nH]c(O)c(N=NC(=O)c3ccc(NS(=O)(=O)c4cccs4)cc3)c2c1`, the Potency is reported as inconclusive: 56.2 µM [inhibitor, partial curve].
`NNS(=O)(=O)c1ccc(N2CCCC2=O)c([N+](=O)[O-])c1` was tested, and the Potency was “inactive”.
`COc1cccc(/C=C2\C(=O)C(=O)c3ccccc32)c1` was tested, and the Potency was inconclusive: 56.2 µM [inhibitor, partial curve].
With `CC[n+]1c(C)sc2c3ccsc3ccc21` the Potency was inconclusive: 70.8 µM [inhibitor, partial curve].
In the case of `COc1ccc(C=C2SC(=S)NC2=O)cc1`, the Potency is reported as inconclusive: 8.91 µM [inhibitor, full curve, poor fit].
`COc1ccccc1N(C(=O)CCl)c1cn(C(C)=O)c2ccccc12` was tested, and the Potency was “inactive”.
For `Cc1cc(C=C2C(=O)c3ccccc3C2=O)c(C)n1-c1ccc(C(=O)O)cc1`, the Potency was inconclusive: 63.1 µM [inhibitor, partial curve, poor fit].
With `COc1ccc2c(c1)c(=O)oc1c(C)c(OCc3cc(C(=O)O)oc3C)ccc12` the Potency was active: 50.1 µM.
`Oc1ccc(/C=N/n2c(COc3ccccc3)n[nH]c2=S)cc1O` was tested, and the Potency was inconclusive: 17.8 µM [inhibitor, full curve, poor fit].
With `N=C1SC(c2ccccc2)C(=O)N1c1ncc(Cc2ccccc2)s1` (centres undefined) the Potency was inconclusive: 56.2 µM [inhibitor, partial curve].
In the case of `Oc1c(Br)cc(Br)c(/C=N/n2c(-c3ccccc3)n[nH]c2=S)c1Br`, the Potency is reported as inconclusive: 50.1 µM [inhibitor, partial curve].
With `Cn1sc(=O)c2cc(S(=O)(=O)NC3CC3)ccc21` the Potency was active: 44.7 µM.
`CCOc1ccc(-n2c(N)c(C(=O)NCc3ccco3)sc2=S)cc1` was tested, and the Potency was “inactive”.
`CC1(C(=O)O)CCCN1C(=O)c1ccccc1OC(F)(F)F` (centres undefined) was tested, and the Potency was “inactive”.
With `O=C1c2cccc3c(O)ccc(c23)C(=O)N1c1ccc(Cl)cc1` the Potency was inconclusive: 56.2 µM [inhibitor, partial curve].
With `Cc1ccnc(NS(=O)(=O)c2ccc(NC(=O)Cc3cccs3)cc2)n1` the Potency was active: 39.8 µM.
For `Cc1cc(C)c(S(=O)(=O)NCCn2c(C)cc3ccccc32)c(C)c1`, the Potency was inconclusive: 79.4 µM [inhibitor, partial curve].
With `Cc1ccc(C)c(S(=O)(=O)N2CCN(C(=O)/C=C/c3ccco3)CC2)c1` the Potency was “inactive”.
For `Cc1c(-c2cccc(NC(=O)c3cccs3)c2)nc2ncccn12`, the Potency was inconclusive: 28.2 µM [inhibitor, single point].
In the case of `CC(OC(=O)CSc1ccc([N+](=O)[O-])cc1)C(=O)NCc1ccccc1` (centres undefined), the Potency is reported as active: 50.1 µM.
For `COc1ccccc1NC(=O)c1ccccc1S(=O)(=O)c1ccc([N+](=O)[O-])cc1`, the Potency was “inactive”.
`COC(=O)c1cc2ccccc2c([N+](=O)[O-])c1O` was tested, and the Potency was inconclusive: 17.8 µM [inhibitor, partial curve].
In the case of `CC1CCN(c2ccc3c(c2)S(=O)(=O)c2cccc(C(=O)NCc4cccc(F)c4)c2C3=O)CC1`, the Potency is reported as inconclusive: 56.2 µM [inhibitor, partial curve].
`O=S(=O)(NNc1ccc(F)cc1F)c1cccc(Cl)c1` was tested, and the Potency was inconclusive: 79.4 µM [inhibitor, partial curve].
With `C#CCOCCOCCOCCNc1nc(N2CCN(C(=O)CCCCCCCCCCNC(=O)Cn3cc(CCCCCN)nn3)CC2)nc(N2CCN(C(=O)CCCCCCCCCCNC(=O)[C@H](CO)n3cc(CCCSC)nn3)CC2)n1` the Potency was active: 31.6 µM.
For `O=C(O)C1Nc2c(Cl)cc(Cl)cc2C2C=CCC12` (centres undefined), the Potency was active: 10 µM.
`O=C(c1cccs1)c1cn(CC(=O)N2CCc3ccccc3C2)c2ccccc12` was tested, and the Potency was inconclusive: 31.6 µM [inhibitor, full curve, poor fit].
In the case of `CC1CCN(S(=O)(=O)c2ccc(NC(=O)Cc3cccs3)cc2)CC1`, the Potency is reported as inconclusive: 35.5 µM [inhibitor, partial curve].
With `Cc1ccc(-c2nnc(Nc3ccc4c(c3)OCO4)c3ccccc23)cc1S(=O)(=O)NCCO` the Potency was inconclusive: 44.7 µM [inhibitor, partial curve].
In the case of `O=C(CSc1nnc(Nc2ccccc2F)s1)NCc1ccco1`, the Potency is reported as inconclusive: 35.5 µM [inhibitor, partial curve].
In the case of `CC1(C)CC(=O)C(C(C2=C(O)CC(C)(C)CC2=O)c2ccc(O)c([N+](=O)[O-])c2)=C(O)C1`, the Potency is reported as inconclusive: 28.2 µM [inhibitor, partial curve].
For `CN(C)c1ccc(S(=O)(=O)NCC(=O)NCc2ccccc2)cc1[N+](=O)[O-]`, the Potency was “inactive”.
For `CSc1ccccc1NC(=O)CNCCCN1CCOCC1`, the Potency was inconclusive: 20 µM [inhibitor, full curve, poor fit].
For `CCc1nnc(NS(=O)(=O)c2ccc(NC(=S)NC(=O)/C=C/c3ccc(C(C)C)cc3)cc2)s1`, the Potency was active: 89.1 µM.
With `Cc1ccc(OCCN2CCN(C(=O)CCC(=O)Nc3nnc(CC(C)C)s3)CC2)cc1` the Potency was “inactive”.
For `O=C1C=C(c2ccc(-c3ccccc3)cc2)C[C@@H](c2ccc3c(c2)OCO3)C1`, the Potency was “inactive”.
For `O=C1CC(c2ccco2)CC(O)=C1C=Nc1cc(Cl)ccc1O` (centres undefined), the Potency was inconclusive: 15 µM [inhibitor, partial curve].
In the case of `COc1ccc(C(=O)CCN2CCCCCC2)cc1`, the Potency is reported as inconclusive: 56.2 µM [inhibitor, partial curve].
In the case of `CN(C)C(=O)c1ccc(NC(=O)COC(=O)C2=COCCO2)cc1`, the Potency is reported as “inactive”.
With `CCN1c2ccccc2N(C)C1(C)c1ccccc1` (centres undefined) the Potency was inconclusive: 17.8 µM [inhibitor, single point].
For `CCC1C/C(=C\c2cc(OC)c(OC)cc2OC)C(=O)/C(=C/c2cc(OC)c(OC)cc2OC)C1` (centres undefined), the Potency was inconclusive: 63.1 µM [inhibitor, partial curve, poor fit].
In the case of `COc1ccc(-c2cnnc(N/N=C/c3ccc(O)c(O)c3)n2)cc1`, the Potency is reported as inconclusive: 39.8 µM [inhibitor, single point].
